Data reported in US20250196055A1, “PROCESS FOR CAPTURING CO2 FROM A MOBILE SOURCE USING AN AMINO ACID SOLVENT” (SAUDI ARABIAN OIL COMPANY, priority 2021, published 2025).
Read-outs that look alike come from different tables or passages of the source.

Experiment: Continuous test plant: membrane contactor CO2 absorption from exhaust and solvent regeneration in stripper
Settings: for CO2 capture rate: FIG. 10
[1] = 210 kPa stripper pressure, 120° C. stripper temperature, 3.75 kg/min liquid, 9 mol % CO2, 25 SCFM

CNCC(=O)O [5 m SAR, Sarcosine]
Capture rate (%) [1]: 21%

NCCS(=O)(=O)O [5 m TAU, taurine]
CO2 capture rate (170 kPa regeneration pressure, listed as 5 m taurine): ~70%
Capture rate (%) (210 kPa stripper pressure, 120° C. stripper temperature, 3.75 kg/min liquid, 9 mol % CO2, 25 SCFM, listed as 5 m taurine): 57%
CO2 capture rate (250 kPa regeneration pressure, listed as 5 m taurine): ~50%

NCCS(=O)(=O)O [3 m TAU, taurine]
CO2 capture rate (170 kPa regeneration pressure, listed as 3 m potassium taurinate): ~55%
Capture rate (%) (210 kPa stripper pressure, 120° C. stripper temperature, 3.75 kg/min liquid, 9 mol % CO2, 25 SCFM, listed as 3 m taurine): 45%
CO2 capture rate (250 kPa regeneration pressure, listed as 3 m potassium taurinate): 35%

O=C(O)[C@@H]1CCCN1 [5 m PRO, Proline]
Capture rate (%): 6%

NCCC(=O)O [5 m b-ALA, Beta-alanine]
Capture rate (%) [1]: 15%

O=C(O)[C@@H]1CCCN1 [3 m PRO, Proline]
Capture rate (%): 7%
